US7968558B2, “Amidine derivatives of 2-heteroaryl-quinazolines and quinolines; potent analgesics and anti-inflammatory agents” (Rottapharm S.p.A., priority 2006, dated 2011)
Where a name gives a salt, the structure may show the parent alone. Some of these results come from one statement about several compounds together.

Test system: mechanical hyperalgesia associated with STZ-induced diabetes
Assay: STZ-induced diabetes mechanical hyperalgesia (neuropathic pain)
Type: in vivo, rat
Conditions: doses of 30 mg/kg i.p.
Experimental: Streptozotocin (STZ)-induced diabetes in the rat has been increasingly used as a model of painful diabetic neuropathy to assess the efficacies of potential analgesic agents (C. Courteix, Pain 1993, 53, 81-8). The compounds of the invention were tested for efficacy in reducing mechanical hyperalgesia associated with STZ-induced diabetes in the rat, according to the experimental model as described by the literature. Diabetes was produced with the injection of a single dose (75 mg/Kg i.p.) of STZ. In the following four weeks after the induction of diabetes the clinical symptoms (weight, body and skin temperature, motility and hyperglycemia) progressively developed by the animals, are strictly monitored. […] The hyperalgesia induced by diabetes was evaluated using the Randall-Selitto method as above described, and quantitated using the analgesimeter. […] The compounds of the invention were administered i.p. (solution, Tween 80, 10% in saline) at different doses, and mechanical hyperalgesia was measured at the reported time, as maximum percent effect (MPE) which represents the difference (%) in pain threshold between the animals treated with the drug and the controls that received only the vehicle, compared with the weight borne by naïf non-diabetic controls. […]

Row | Compound | protection (MPE)
1 | CC(=N)Nc1ccc2nc(-c3ccc4c(c3)CCO4)ncc2c1 [Example 4, N-[2-(2,3-dihydro-benzofuran-5-yl)quinazolin-6-yl]acetamidine dihydrochloride hemihydrate] | higher than 100%
2 | CC(=N)Nc1ccc2nc(-c3ccc4c(c3)OCO4)ccc2c1 [Example 2, N-[2-(1,3-benzodioxol-5-yl)quinolin-6-yl]acetamidine dihydrochloride] | higher than 100%
